Results are given in words; binding and its absence hold for the method and conditions named. In cells and extracts the contact can be indirect. Here binding means that the protein was enriched with, or labelled near, the bait; the list need not be complete. Sequences can lack the tags named with a protein.
T1: MeeY-FLAG (B. subtilis) (UniProt O34997)
T1 sequence: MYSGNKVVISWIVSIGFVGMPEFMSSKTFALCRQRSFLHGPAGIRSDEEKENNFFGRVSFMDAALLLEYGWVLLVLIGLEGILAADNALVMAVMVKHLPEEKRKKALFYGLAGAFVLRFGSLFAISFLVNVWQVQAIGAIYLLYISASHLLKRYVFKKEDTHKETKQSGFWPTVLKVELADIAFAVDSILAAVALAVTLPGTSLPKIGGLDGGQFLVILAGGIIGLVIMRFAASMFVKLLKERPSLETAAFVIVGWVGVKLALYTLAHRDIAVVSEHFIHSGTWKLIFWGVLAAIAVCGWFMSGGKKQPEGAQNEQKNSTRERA

T2: MeeF-FLAG (B. subtilis) (UniProt O34447)
T2 sequence: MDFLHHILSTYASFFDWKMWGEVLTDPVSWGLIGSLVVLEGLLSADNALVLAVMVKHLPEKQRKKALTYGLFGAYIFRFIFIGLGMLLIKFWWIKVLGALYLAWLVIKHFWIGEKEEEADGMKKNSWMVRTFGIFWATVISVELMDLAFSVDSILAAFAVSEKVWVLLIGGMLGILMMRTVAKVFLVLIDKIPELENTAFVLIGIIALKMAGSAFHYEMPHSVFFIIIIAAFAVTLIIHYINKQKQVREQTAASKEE


What was measured:
[1] = target: T1, MeeY-FLAG (B. subtilis); assay: affinity purification with mass spectrometry; anti-FLAG M2 magnetic beads on lysates (1% Triton X-100) of B. subtilis grown overnight in LB with 50 uM Mn; 30 °C for 3 h; washed with 1X PBS; eluted by heating at 95 °C in 2X Laemmli sample buffer; LC-MS/MS; membrane proteins found in the sample but not in the untagged WT controls
[2] = target: T2, MeeF-FLAG (B. subtilis); assay: as above
[3] = target: T1, MeeY-FLAG (B. subtilis); assay: affinity purification with mass spectrometry; anti-FLAG M2 magnetic beads on lysates (1% Triton X-100) of B. subtilis grown overnight in LB with 50 uM Mn; 30 °C for 3 h; washed with 1X PBS; eluted by glycine (pH 3.0) for 30 min; LC-MS/MS; membrane proteins found in the sample but not in the untagged WT controls

Binder	binding [1]	binding [2]	binding [3]
FloA (protein, UniProt P54466 1-331) MDPSTLMILAIVAVAIIVLAVFFTFVPVMLWISALAAGVKISIFTLVGMRLRRVIPNRVVNPLIKAHKAGLNVGTNQLESHYLAGGNVDRVVNALIAAQRANIELTFERCAAIDLAGRDVLEAVQMSVNPKVIETPFIAGVAMDGIEVKAKARITVRANIERLVGGAGEETIVARVGEGIVSTIGSSDNHKKVLENPDMISQTVLGKGLDSGTAFEILSIDIADVDIGKNIGAILQTDQAEADKNIAQAKAEERRAMAVAQEQEMRARVEEMRAKVVEAEAEVPLAMAEALREGNIGVMDYMNIKNIDADTEMRDSFGKLTKDPSDEDRKS	binds	binds	
SwrC (protein, UniProt O31501 1-1052) MNHVINFVLKNKFAVWLMTIIVTAAGLYAGMNMKQESIPDVNMPYLTISTTYPGATPSQVADEVTKPVEQAVQNLDGVSVVTSTSYENASSVMIEYDYEKDMDKAKTEAAEALENVNLPDDAKDPEISRYSLNSFPILTLSVSSDKDNLQELTKQVEDSLVSKLEGIEGVASVQVSGQQVEEVEFSFKEDKLKEYGLDEDTVKQVIQGSDVTTPLGLYTFGNEEKSVVVSGDIETIKDLKNMRIPTASASSAGSSAASQAGAQSAQAAQSAQAAAQVQQSASTAVPTVKLSDIATIKDVKKAESVSRTNGKDSIGINIVKANDANTVEVADDVKAELKKFKEDHKGFNYSATLDMAEPITQSVDTMLSKAIFGAIFAIVIILLFLRDIKSTLISVVSIPLSLLIALLVLQQLDITLNIMTLGAMTVAIGRVVDDSIVVIENIYRRMRLKDEPLRGKALVREATKEMFKPIMSSTIVTIAVFLPLALVGGQIGELFIPFALTIVFALAASLVISITLVPMLAHSLFKKSLTGAPIKAKEHKPGRLANIYKKVLNWALSHKWITSIIAVLMLLGSLFLVPLIGASYLPSEEEKTMQLTYSPEPGETKKEAENEAEKAEKILLDRKHVDTVQYSLGSGSPLAGGDSNGALFYIKYESDTPDFDKEKDNVLKEIQKQSDRGEWKSQDFSSSGNNNELTYYVYGDSENDIKDTVKDIEKIMKDEKDLKNVNSGLSSTYDEYTFVADQEKLSKLGLTASQISQALMSQTSQEPLTTVKKDGKELDVNIKTEKDEYKSVKDLENKKITSATGQEVKIGDVAKVKEGSTSDTVSKRDGKVYADVTGEVTSDNVTAVSAAIQKKIDKLDHPDNVSIDTGGVSADIADSFTKLGLAMLAAIAIVYLVLVITFGGALAPFAILFSLPFTVIGALVGLYVSGETISLNAMIGMLMLIGIVVTNAIVLIDRVIHKEAEGLSTREALLEAGSTRLRPILMTAIATIGALIPLALGFEGGSQVISKGLGVTVIGGLISSTLLTLLIVPIVYEVLAKFRKKKPGTEEE	binds	binds	
OppF (protein, UniProt P24137 1-305) MTEKLLEIKHLKQHFVTPRGTVKAVDDLSFDIYKGETLGLVGESGCGKSTTGRSIIRLYEATDGEVLFNGENVHGRKSRKKLLEFNRKMQMIFQDPYASLNPRMTVADIIAEGLDIHKLAKTKKERMQRVHELLETVGLNKEHANRYPHEFSGGQRQRIGIARALAVDPEFIIADEPISALDVSIQAQVVNLMKELQKEKGLTYLFIAHDLSMVKYISDRIGVMYFGKLVELAPADELYENPLHPYTKSLLSAIPLPDPDYERNRVRQKYDPSVHQLKDGETMEFREVKPGHFVMCTEAEFKAFS	binds	binds	
SdhA (protein, UniProt P08065 1-586) MSQSSIIVVGGGLAGLMATIKAAESGMAVKLFSIVPVKRSHSVCAQGGINGAVNTKGEGDSPWEHFDDTVYGGDFLANQPPVKAMCEAAPSIIHLLDRMGVMFNRTPEGLLDFRRFGGTQHHRTAYAGATTGQQLLYALDEQVRRYEVAGLVTKYEGWEFLGAVLDDDRTCRGIVAQNLTNMQIESFRSDAVIMATGGPGIIFGKSTNSMINTGSAASIVYQQGAYYANGEFIQIHPTAIPGDDKLRLMSESARGEGGRVWTYKDGKPWYFLEEKYPAYGNLVPRDIATREIFDVCVNQKLGINGENMVYLDLSHKDPKELDIKLGGIIEIYEKFMGDDPRKLPMKIFPAVHYSMGGLWVDYDQMTNIPGLFAAGECDYSMHGGNRLGANSLLSAIYGGMVAGPNAVKYVNGLESSAEDMSSSLFDAHVKKEEEKWADIMSMDGTENAYVLHKELGEWMTANVTVVRHNDKLLKTDDKIQELMERFKKININDTTKWSNQGAMFTRQFSNMLQLARVITLGAYNRNESRGAHYKPDYPERNDDEWLKTTMAKHVSPYEAPEFEYQDVDVSLITPRKRDYSKKKVAK	binds	binds	
SecDF (protein, UniProt O32047 1-737) MKKGRLIAFFLFVLLIGTGLGYFTKPAANNITLGLDLQGGFEVLYDVQPVKKGDKITKDVLVSTVEALNRRANVLGVSEPNIQIEGNNRIRVQLAGVTNQNRAREILATEAQLSFRDANDKELLNGADLVENGAKQTYDSTTNEPIVTIKLKDADKFGEVTKKVMKMAPNNQLVIWLDYDKGDSFKKEVQKEHPKFVSAPNVSQELNTTDVKIEGHFTAQEAKDLASILNAGALPVKLTEKYSTSVGAQFGQQALHDTVFAGIVGIAIIFLFMLFYYRLPGLIAVITLSVYIYITLQIFDWMNAVLTLPGIAALILGVGMAVDANIITYERIKEELKLGKSVRSAFRSGNRRSFATIFDANITTIIAAVVLFIFGTSSVKGFATMLILSILTSFITAVFLSRFLLALLVESRWLDRKKGWFGVNKKHIMDIQDTDENTEPHTPFQKWDFTSKRKYFFIFSSAVTVAGIIILLVFRLNLGIDFASGARIEVQSDHKLTTEQVEKDFESLGMDPDTVVLSGEKSNIGVARFVGVPDKETIAKVKTYFKDKYGSDPNVSTVSPTVGKELARNALYAVAIASIGIIIYVSIRFEYKMAIAAIASLLYDAFFIVTFFSITRLEVDVTFIAAILTIIGYSINDTIVTFDRVREHMKKRKPKTFADLNHIVNLSLQQTFTRSINTVLTVVIVVVTLLIFGASSITNFSIALLVGLLTGVYSSLYIAAQIWLAWKGRELKKDSAQ	binds	binds	binds
YknW (protein, UniProt O31709 1-231) METNVEKNSGTATEKPSLFGVITSPSVQFERIRERPAVWGPLLIVAAIIIVGAVLQSLGTDYSELLKSQDTQGLSAEQMETVATITKFGGMAGAIIGGIAALFIAPLIYWLCVKVSGGVTTYKKMLSLSLFVSLISSLGLLVNGIVAFTTDVNPLYSTTSLAGIIPSDGALASVLNTFEIFSIWSFVLLAIGLHKTGGISKKAGWISAIILFGILVVFSLFSGLINSVAGA	binds	binds	
PrsA (protein, UniProt P24327 20-292) CSSGDKEVIAKTDAGDVTKGELYTNMKKTAGASVLTQLVQEKVLDKKYKVSDKEIDNKLKEYKTQLGDQYTALEKQYGKDYLKEQVKYELLTQKAAKDNIKVTDADIKEYWEGLKGKIRASHILVADKKTAEEVEKKLKKGEKFEDLAKEYSTDSSASKGGDLGWFAKEGQMDETFSKAAFKLKTGEVSDPVKTQYGYHIIKKTEERGKYDDMKKELKSEVLEQKLNDNAAVQEAVQKVMKKADIEVKDKDLKDTFNTSSTSNSTSSSSSNSK	binds	binds	binds
MgtE (protein, UniProt O34442 1-451) MVQNMTYDELILRIIILLRDGKIRDFRSVIDELQPYDMAFIFKEMPEKHRARYLSYLTVDDITDMIGELEREFQLVVLNKVGKTKATLAMNKMDNDDLAQLLEEMDEELKEQLLSSMEASESKAVQLLMNYPADSAGRMMTNRYVWIPQHYTVKDAVVKLKSFAEIAESINYLYVINESKQLVGVLSYRDLILGEPEEKVQDLMFTRVISADALQDQEEVARLIERYDFLAIPVVEENNVLVGIVTVDDIIDVVIREADEDYEKFAASGKDITFDTKAYVAAYRRLPWLILLLFIGLISGSIISYFEDALKQVVALAFFMPMVSGMTGNTGTQSLAVVIRGLSKEEMNKKTIVRLIFREFRTSIFIGAVCSVLIAIVSIIWQGNALLGFVVASSLFLTLIIGTMSGTIIPIILHKLKVDPAIASGPLITTLNDILSLLIYFGIATAFIHSL			binds

Reference: PMC10550928
